# Measurements published in article PMC12135372.
# Chains of the proteins cited; added tags and fusions are not shown. A line that says so, or that is headed by a name, gives the form on record, which may keep a tag or linker.
# Dr-tRNA-LC-FL (DDX1, RTCB, FAM98B, CGI99, ASW) (Danio rerio), one chain, as listed by the source, chain 1 of 4: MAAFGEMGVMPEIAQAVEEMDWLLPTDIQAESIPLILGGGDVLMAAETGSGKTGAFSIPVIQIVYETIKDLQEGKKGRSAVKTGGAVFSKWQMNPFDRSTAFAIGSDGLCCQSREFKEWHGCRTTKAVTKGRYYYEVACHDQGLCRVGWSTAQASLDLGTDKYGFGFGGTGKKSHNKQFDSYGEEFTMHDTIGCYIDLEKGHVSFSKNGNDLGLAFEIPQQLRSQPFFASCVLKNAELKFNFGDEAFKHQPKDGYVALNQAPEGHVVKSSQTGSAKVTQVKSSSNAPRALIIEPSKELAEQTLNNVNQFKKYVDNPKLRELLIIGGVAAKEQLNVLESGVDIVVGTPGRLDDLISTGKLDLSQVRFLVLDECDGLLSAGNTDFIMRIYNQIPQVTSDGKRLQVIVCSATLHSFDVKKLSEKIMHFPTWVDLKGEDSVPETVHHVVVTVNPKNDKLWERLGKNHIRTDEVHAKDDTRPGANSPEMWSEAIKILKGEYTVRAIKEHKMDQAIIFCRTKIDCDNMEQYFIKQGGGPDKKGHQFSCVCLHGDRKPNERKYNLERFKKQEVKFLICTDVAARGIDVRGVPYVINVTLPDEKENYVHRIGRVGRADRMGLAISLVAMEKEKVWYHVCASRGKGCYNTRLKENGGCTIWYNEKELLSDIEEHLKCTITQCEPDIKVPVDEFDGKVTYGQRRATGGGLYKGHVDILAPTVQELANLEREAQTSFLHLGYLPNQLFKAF
# Dr-tRNA-LC-FL (DDX1, RTCB, FAM98B, CGI99, ASW) (Danio rerio), one chain, as listed by the source, chain 4 of 4: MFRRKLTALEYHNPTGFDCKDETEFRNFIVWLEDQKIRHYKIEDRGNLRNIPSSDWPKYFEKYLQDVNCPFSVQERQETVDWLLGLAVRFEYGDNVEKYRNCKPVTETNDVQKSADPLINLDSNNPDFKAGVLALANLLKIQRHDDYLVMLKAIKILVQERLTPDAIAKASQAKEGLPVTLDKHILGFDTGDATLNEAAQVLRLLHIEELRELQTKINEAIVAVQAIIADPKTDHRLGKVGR
# Dr-tRNA-LC-FL (DDX1, RTCB, FAM98B, CGI99, ASW) (Danio rerio), one chain, as listed by the source, chain 3 of 4: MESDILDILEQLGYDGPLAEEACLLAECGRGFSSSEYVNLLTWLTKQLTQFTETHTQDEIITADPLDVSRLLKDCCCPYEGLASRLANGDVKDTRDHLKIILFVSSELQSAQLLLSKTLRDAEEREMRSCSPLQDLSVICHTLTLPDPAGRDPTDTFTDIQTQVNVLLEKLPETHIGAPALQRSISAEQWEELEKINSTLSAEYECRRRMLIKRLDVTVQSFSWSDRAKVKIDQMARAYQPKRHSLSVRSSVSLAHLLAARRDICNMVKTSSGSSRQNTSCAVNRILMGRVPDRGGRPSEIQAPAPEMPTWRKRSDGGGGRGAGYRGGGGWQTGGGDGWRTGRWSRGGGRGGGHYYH
# Dr-tRNA-LC-TR (DDX1 C-term, RTCB, FAM98B, CGI99, ASW N-term) (Danio rerio), one chain, as listed by the source, chain 1 of 4: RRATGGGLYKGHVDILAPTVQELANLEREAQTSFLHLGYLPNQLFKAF
# Dr-tRNA-LC-FL (DDX1, RTCB, FAM98B, CGI99, ASW) (Danio rerio), one chain, as listed by the source, chain 2 of 4: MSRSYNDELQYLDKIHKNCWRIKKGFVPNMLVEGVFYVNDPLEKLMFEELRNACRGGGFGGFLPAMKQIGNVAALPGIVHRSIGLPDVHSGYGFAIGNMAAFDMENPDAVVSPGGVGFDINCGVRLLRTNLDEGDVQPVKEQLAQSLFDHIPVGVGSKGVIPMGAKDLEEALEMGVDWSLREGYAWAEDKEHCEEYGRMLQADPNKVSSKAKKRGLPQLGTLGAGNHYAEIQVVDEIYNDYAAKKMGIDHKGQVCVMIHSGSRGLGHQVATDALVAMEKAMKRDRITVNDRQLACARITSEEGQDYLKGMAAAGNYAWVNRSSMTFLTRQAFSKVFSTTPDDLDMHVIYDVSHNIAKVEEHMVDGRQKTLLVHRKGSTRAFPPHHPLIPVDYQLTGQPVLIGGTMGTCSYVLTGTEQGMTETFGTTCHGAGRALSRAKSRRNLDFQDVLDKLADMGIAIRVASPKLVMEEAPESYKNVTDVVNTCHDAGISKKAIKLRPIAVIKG
# What was measured:
# [1] = test system: Dr-tRNA-LC-FL (DDX1, RTCB, FAM98B, CGI99, ASW) (Danio rerio); test: MST; settings: no GTP, no Mn2+ (buffer A), almost identical binding, Kd only in figure; MST: 25 mM Hepes pH 7.5, 150 mM NaCl, 1 mM DTT, with or without 2 mM GTP and 2 mM MnCl2, 20 nM Cy5-tRNA, temperature not stated; recombinant protein; protein details: His6-MBP on DDX1, removed by TEV; label: Cy5
# [2] = test system: Dr-tRNA-LC-TR (DDX1 C-term, RTCB, FAM98B, CGI99, ASW N-term) (Danio rerio); test: MST; settings: no GTP, no Mn2+ (buffer A), almost identical binding, Kd only in figure; MST: 25 mM Hepes pH 7.5, 150 mM NaCl, 1 mM DTT, with or without 2 mM GTP and 2 mM MnCl2, 20 nM Cy5-tRNA, temperature not stated; recombinant protein; protein details: His6-RTCB; label: Cy5
sequence,measurement,setting,value
GGCUCCAGUGGCGCAAUCGGUUAGCGCGCGGUACUUAUAAUGCCGAGGUUGUGAGUUCGAGCCUCACCUGGAGCACCA [tRNAIle],binding result,[1],binds
same,binding result,[2],binds

# Construct, isoform or probe ends are uncertain for at least one entry. At least one verdict was read from the data and is not stated in words by the source.
